This series in a line: Dyeing of polyester fibers with dispersed dyestuff (shade).
Setting [1] is: polyester fibers, dispersed dyestuff.

These results are taken from patent publication US4049375A, “Process for dyeing synthetic fibers formed from aromatic polyesters and new monoazo dyestuffs useful for such dyeing” (Produits Chimiques Ugine Kuhlmann, priority 1974, dated 1977).

With `CCN(CC(F)(F)F)c1ccc(N=Nc2ccc([N+](=O)[O-])cc2C#N)c(NC(C)=O)c1` [Example 1, [2-cyano-4-nitro-benzene]-<1 azo 1>-[2-acetylamino-N-ethyl-N-(2,2,2-trifluoro-ethyl)-4-amino-benzene]], the “Shade on polyester fibers” value under setting [1] was “very bright ruby”.

Consider `CCN(CC(F)(F)F)c1cc(NC(C)=O)c(N=Nc2c(C#N)cc([N+](=O)[O-])cc2[N+](=O)[O-])cc1OC` [Example 2, [2-cyano-4,6-dinitro-benzene]-<1 azo 1>-[2-acetylamino-5-methoxy-N-ethyl-N-(2,2,2-trifluoro-ethyl)-4-amino-benzene]], for which the “Shade on polyester fibers” value is listed as “blue” (Table A) and “greenblue” under setting [1].

In the case of `CC(=O)OCCN(CC(F)(F)F)c1ccc(N=Nc2ccc([N+](=O)[O-])cc2C#N)cc1` [Example 3], for the setting “Table A”, the “Shade on polyester fibers” value is recorded as “scarlet”.

As for `CC(=O)OCCOCCN(CC(F)(F)F)c1ccc(N=Nc2ccc([N+](=O)[O-])cc2C#N)cc1` [Example 4], for the setting “Table A”, the “Shade on polyester fibers” value was “scarlet”.

`CCN(CC(F)(F)F)c1ccc(N=Nc2c(C#N)cc([N+](=O)[O-])cc2[N+](=O)[O-])c(NC(C)=O)c1` [Example 5]: where the note is “Table A”, the “Shade on polyester fibers” value is on record as “violet”.

On to `CCN(CC(F)(F)F)c1cc(NC(C)=O)c(N=Nc2ccc([N+](=O)[O-])cc2C#N)cc1OC` [Example 6], for which the “Shade on polyester fibers” value (Table A) is reported as “violet”.

As to `COc1cc(N(C)CC(F)(F)F)ccc1N=Nc1ccc([N+](=O)[O-])cc1C#N` [Example 7], under “Table A”, the “Shade on polyester fibers” value is reported as “red”.

As for `COc1cc(N(CCOC(C)=O)CC(F)(F)F)ccc1N=Nc1ccc([N+](=O)[O-])cc1C#N` [Example 9], for the setting “Table A”, the “Shade on polyester fibers” value is recorded as “red”.

For the compound `CCN(CC(F)(F)F)c1ccc(N=Nc2c(Br)cc([N+](=O)[O-])cc2C#N)c(NC(C)=O)c1` [Example 10], under “Table A”, the “Shade on polyester fibers” value was “violet”.

Turning to `CC(=O)OCCN(CC(F)(F)F)c1ccc(N=Nc2ccc([N+](=O)[O-])cc2C#N)c(C)c1` [Example 11], where the note is “Table A”, the “Shade on polyester fibers” value is “red”.

As to `N#Cc1cc([N+](=O)[O-])ccc1N=Nc1ccc(N(CCO)CC(F)(F)F)cc1` [Example 12], the “Shade on polyester fibers” value under setting [1] was “scarlet”.
